Test results as given in patent US20050136142A1 (priority 2003, published 2005).
At least one structure is not confirmed: it was looked up by name or label, or the drawing left a doubt.

Tested on: wild type HBV
Test: Inhibition of viral DNA replication in transfected cells, wild type HBV (Southern hybridisation)
Assay type: cell-based, hepatitis B virus
Details: HepG2 and Huh7 cells transfected with plasmid; extract 500 μg/ml or lamivudine 200 μg/ml; four days; Dig probe hybridisation

## Nc1ccn([C@@H]2CS[C@H](CO)O2)c(=O)n1 [lamivudine]
  inhibition of viral DNA replication of wild type HBV: inhibits the viral DNA replication
